Assay results published in patent US20030148913A1, “Hard surface cleaners which provide improved fragrance retention properties to hard surfaces” (priority 2001, published 2003).

Experiment: Fogging measurements on mirror cleaned with aqueous solution (Example 9)
Conditions: for fogging resistance (observation): 0.1% w/v aqueous solution, mirror over steaming water bath at 80° C

**Q.** With C12H25(OC2H4)5(OC3H6)4OH [Dehypon LS54] as the substance, how does the “fogging resistance (observation)” value read?
**A.** Its value is “Fogging after 2 min”.

**Q.** And the “level in composition conferring good anti-fogging performance (as little as)” value (treated surfaces)?
**A.** Its value is 0.25%.

**Q.** With C12H5(OC2H4)3(OC3H6)6OH [Dehypon LS36] as the substance, how does the “fogging resistance (observation)” value read?
**A.** The value was “Fogging after 2 min”.
